Among the data in article PMC5477029 are binding values, retold here.

Protein sequences, listed by entry. Tags and fused reporters are not part of them.
UniProt Q9P2J5: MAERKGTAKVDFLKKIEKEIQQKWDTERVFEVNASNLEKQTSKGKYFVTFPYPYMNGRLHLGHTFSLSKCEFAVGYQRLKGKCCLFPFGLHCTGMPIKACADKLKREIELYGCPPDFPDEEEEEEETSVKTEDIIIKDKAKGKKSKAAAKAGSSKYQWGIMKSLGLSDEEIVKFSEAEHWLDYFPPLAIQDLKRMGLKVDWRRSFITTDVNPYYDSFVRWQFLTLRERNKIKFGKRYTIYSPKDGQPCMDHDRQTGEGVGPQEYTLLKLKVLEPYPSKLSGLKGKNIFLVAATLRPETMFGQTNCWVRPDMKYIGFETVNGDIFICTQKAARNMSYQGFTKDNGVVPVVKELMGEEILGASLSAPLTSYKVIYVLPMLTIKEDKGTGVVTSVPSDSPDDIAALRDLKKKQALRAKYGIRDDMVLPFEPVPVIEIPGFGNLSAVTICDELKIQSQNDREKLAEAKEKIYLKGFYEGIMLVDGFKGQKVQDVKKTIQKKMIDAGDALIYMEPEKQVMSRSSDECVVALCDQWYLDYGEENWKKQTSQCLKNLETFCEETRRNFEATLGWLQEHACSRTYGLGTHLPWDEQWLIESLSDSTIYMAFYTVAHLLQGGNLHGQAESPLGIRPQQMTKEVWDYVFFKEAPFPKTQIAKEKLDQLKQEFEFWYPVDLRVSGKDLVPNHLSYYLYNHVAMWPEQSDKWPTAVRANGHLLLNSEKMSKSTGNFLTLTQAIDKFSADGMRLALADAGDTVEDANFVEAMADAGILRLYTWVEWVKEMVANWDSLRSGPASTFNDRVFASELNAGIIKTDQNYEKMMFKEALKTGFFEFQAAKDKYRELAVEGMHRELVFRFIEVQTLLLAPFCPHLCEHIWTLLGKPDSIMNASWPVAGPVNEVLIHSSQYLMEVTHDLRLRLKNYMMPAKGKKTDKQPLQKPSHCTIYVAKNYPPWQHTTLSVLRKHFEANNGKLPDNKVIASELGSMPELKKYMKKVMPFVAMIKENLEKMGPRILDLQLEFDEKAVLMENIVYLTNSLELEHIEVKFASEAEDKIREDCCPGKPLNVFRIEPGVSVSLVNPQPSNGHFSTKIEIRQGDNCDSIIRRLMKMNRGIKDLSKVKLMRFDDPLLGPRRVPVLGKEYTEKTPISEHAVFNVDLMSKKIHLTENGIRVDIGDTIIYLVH
UniProt Q9NQL2: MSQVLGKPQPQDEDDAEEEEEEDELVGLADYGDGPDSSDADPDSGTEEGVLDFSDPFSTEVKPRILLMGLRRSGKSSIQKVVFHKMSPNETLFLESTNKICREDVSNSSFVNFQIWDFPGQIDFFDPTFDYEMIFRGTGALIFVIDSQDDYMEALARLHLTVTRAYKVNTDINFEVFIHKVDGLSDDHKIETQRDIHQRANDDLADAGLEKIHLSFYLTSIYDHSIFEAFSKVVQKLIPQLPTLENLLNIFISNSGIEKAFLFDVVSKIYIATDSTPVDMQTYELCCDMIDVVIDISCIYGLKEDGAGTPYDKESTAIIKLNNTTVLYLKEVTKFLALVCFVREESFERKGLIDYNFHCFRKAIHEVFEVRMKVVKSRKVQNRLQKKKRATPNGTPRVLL

Assay [1] addresses leucyl-tRNA synthetase (purified LRS) (human) (UniProt Q9P2J5). Put plainly: ELISA; purified LRS coated on 96-well plates; GST-RagD (roughly purified on a glutathione column) added together with each β-turn mimetic compound for 3 h; bound RagD-GST detected with anti-GST antibody and enzyme-conjugated secondary antibody; both purified. On the technique in general: In an ELISA, binding on a coated surface is turned into a signal by an enzyme label.

Assay [2] has as its target CFP (Cyan Fluorescent Protein)-fused LRS (human) (UniProt Q9P2J5). Put plainly: FRET or BRET; live HEK293T cells co-transfected with LRS-CFP and RagD-YFP; 40 μM 5c{3,9} or 5a{2,9} or DMSO added after 30 min; images at 10 min intervals over 3.5 h in single cells; CFP/CFP, CFP/YFP, YFP/YFP filter sets.

No constants are given. Whether binding was seen depends on the method and setting. For some assays here: In cells and extracts the contact can be indirect. Some results given as binding are weak or reduced against the parent protein; the word gives no strength.

As to “GST (Glutathione S-transferase)-tagged RagD (from UniProt Q9NQL2 1-400)”, in assay [1], the binding entry is reported as “binds”.

For the substance “YFP (Yellow Fluorescent Protein)-fused RagD (from UniProt Q9NQL2 1-400)”, the binding result in assay [2] is “binds”.
